Results as given in US20230312724A1.
Substitutions are numbered along the chain they refer to. These are yes or no findings as the source states them, for the method shown. Some entries that bind do so weakly or less than the wild type. Values belong to the binder of their own block, whether it stands above or below them.

Protein sequences, listed by entry. Tags and fused reporters are not part of them. Lines headed by an entry give the natural chain unless they say otherwise; changes in a name come on top.
UniProt Q7Z7D3: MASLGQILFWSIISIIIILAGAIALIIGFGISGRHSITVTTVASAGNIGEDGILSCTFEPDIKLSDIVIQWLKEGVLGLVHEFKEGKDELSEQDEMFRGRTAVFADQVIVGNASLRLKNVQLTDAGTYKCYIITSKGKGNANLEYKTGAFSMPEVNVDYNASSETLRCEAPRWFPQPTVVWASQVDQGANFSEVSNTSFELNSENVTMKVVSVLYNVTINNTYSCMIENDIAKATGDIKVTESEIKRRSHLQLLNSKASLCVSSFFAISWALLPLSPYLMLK
UniProt Q7TSP5: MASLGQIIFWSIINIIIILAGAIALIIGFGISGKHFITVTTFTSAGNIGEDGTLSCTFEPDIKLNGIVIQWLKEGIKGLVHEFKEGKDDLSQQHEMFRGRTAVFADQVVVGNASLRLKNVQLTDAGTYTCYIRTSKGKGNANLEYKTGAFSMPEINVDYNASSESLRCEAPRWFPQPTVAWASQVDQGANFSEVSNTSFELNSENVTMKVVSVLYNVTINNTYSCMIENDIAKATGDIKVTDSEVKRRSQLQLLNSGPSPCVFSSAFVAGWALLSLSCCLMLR

Key:
[1] = target: IgV domain of human B7-H4-Fc (human); assay: ELISA, coated hB7-H4 IgV domain
human B7-H4-Fc (human) [2] = assay: ELISA, coated hB7-H4-Fc
[3] = target: IgV domain of mouse B7-H4-Fc (mouse; human); assay: ELISA (FIG. 8)
[4] = target: IgV domain of human B7-H4-Fc (human); assay: ELISA (FIG. 8)
human B7-H4-his (human) [5] = target: human B7-H4-his (human) (UniProt Q7Z7D3); assay: ELISA, coated hB7-H4-his
[6] = target: IgV domain of mouse B7-H4-Fc (mouse; human); assay: ELISA
[7] = target: IgV domain of human B7-H4-Fc (human); assay: ELISA
[8] = target: hB7-H4 (soluble human B7-H4, construct not named) (human) (UniProt Q7Z7D3); assay: SPR (Biacore)
[9] = target: mB7-H4 (soluble mouse B7-H4, construct not named) (mouse) (UniProt Q7TSP5); assay: SPR (Biacore)
[10] = target: IgV domain of mouse B7-H4-Fc (mouse; human); assay: ELISA, coated mB7-H4 IgV domain
[11] = target: hB7-H4 (soluble human B7-H4, construct not named) (human) (UniProt Q7Z7D3); assay: summary of ELISA and flow cytometry
[12] = target: mB7-H4 (soluble mouse B7-H4, construct not named) (mouse) (UniProt Q7TSP5); assay: summary of ELISA and flow cytometry
mouse B7-H4-his (mouse) [13] = target: mouse B7-H4-his (mouse) (UniProt Q7TSP5); assay: ELISA, coated mB7-H4-his
mouse B7-H4-his (mouse) [14] = target: mouse B7-H4-his (mouse) (UniProt Q7TSP5); assay: ELISA on coated mB7-H4-his
[15] = target: IgV domain of mouse B7-H4-Fc (mouse; human); assay: ELISA on coated IgV domain of mB7-H4
human B7-H4-his (human) [16] = target: human B7-H4-his (human) (UniProt Q7Z7D3); assay: ELISA on coated hB7-H4-his
[17] = target: mB7-H4 (soluble mouse B7-H4, construct not named) (mouse) (UniProt Q7TSP5); assay: ELISA (FIG. 16)
[18] = target: IgV domain of human B7-H4-Fc (human); assay: ELISA (FIG. 16)
human B7-H4-Fc (human) [19] = assay: ELISA on coated hB7-H4-Fc
[20] = target: IgV domain of human B7-H4-Fc (human); assay: ELISA on coated IgV domain of hB7-H4
[21] = target: IgV domain of mouse B7-H4-Fc (mouse; human); assay: ELISA (FIG. 14)
[22] = target: IgV domain of human B7-H4-Fc (human); assay: ELISA (FIG. 14)
[23] = target: IgV domain of human B7-H4-Fc (human); assay: ELISA (FIG. 9)
[24] = target: human B7-H4 expressed on cells (human) (UniProt Q7Z7D3); assay: flow cytometry
[25] = target: human B7-H4 expressed on cells (human) (UniProt Q7Z7D3); assay: flow cytometry, SK-BR-3 cells
[26] = target: human B7-H4 expressed on cells (human) (UniProt Q7Z7D3); assay: flow cytometry, CHO cells expressing hB7-H4
[27] = target: human B7-H4 expressed on cells (human) (UniProt Q7Z7D3); assay: flow cytometry, CHO-hB7-H4
[28] = target: hB7-H4 (soluble human B7-H4, construct not named) (human) (UniProt Q7Z7D3); assay: ELISA
[29] = target: human B7-H4 expressed on cells (human) (UniProt Q7Z7D3); assay: flow cytometry, hB7H4 stable cells (CHO)
[30] = target: IgC domain of mouse B7-H4-Fc (mouse; human); assay: ELISA, coated mB7-H4 IgC domain
[31] = target: IgC domain of mouse B7-H4-Fc (mouse; human); assay: ELISA (FIG. 7)
[32] = target: IgC domain of human B7-H4-Fc (human); assay: ELISA (FIG. 7)
[33] = target: IgC domain of mouse B7-H4-Fc (mouse; human); assay: ELISA
[34] = target: IgC domain of human B7-H4-Fc (human); assay: ELISA
[35] = target: IgC domain of human B7-H4-Fc (human); assay: ELISA, coated hB7-H4 IgC domain
human B7-H4-Fc (human) [36] = assay: ELISA

B3: 3F2/49A2 (antibody, human IgG1, V domains shown)
VH: QVQLVQSGAEVKKPGASVKVSCKASGYTFTAQYMYWVRQAPGQGLEWMGRINPTSGNTVYAQKLQGRVTMTRDTSTSTVYMELSSLRSEDTAVYYCARGINWFDPWGQGTLVTVSS
VL: DIQMTQSPSSLSASVGDRVTITCRASQNIDTYVNWYQQKPGKAPKLLIYAASRLHTVPSRFSGSGSGTDFTLTISSLQPEDFATYYCQQSYTSPFTFGGGTKVEIK
binding [1]: binds
binding (human B7-H4-Fc (human) [2]): binds
binding [23]: binds
binding [24]: binds
binding [25]: binds
binding (human B7-H4-his (human) [5]): binds
binding [26]: binds

B4: 6C3/6C3 (antibody, human IgG1, V domains shown)
VH: EVQLLESGGGLVQPGGSLRLSCAASGFTFSSYAMHWVRQAPGKGLEWVASISGTGFTTRYADSVKGRFTISRDNSKNTLYLQMNSLRAEDTAVYYCARGGWFRDTPVDYWGQGTLVTVSS
VL: DIVMTQSPLSLPVTPGEPASISCRSSQSLLHSNGYNYLDWYLQKPGQSPQLLIYGASSLRSGVPDRFSGSGSGTDFTLKISRVEAZDVGVYYCMQASHWPPTFGQGTRLEIK
binding [1]: binds
binding [27]: binds
binding (human B7-H4-Fc (human) [2]): binds
binding [24]: binds
binding (human B7-H4-his (human) [5]): binds
binding [28]: binds
binding [7]: binds
binding [26]: binds
binding [11]: binds
binding [29]: binds

B7: 4B9/4B9 (antibody, human IgG1, V domains shown)
VH: QVQLVQSGAEVKKPGASVKVSCKASGYTFTSYYMHWVRQAPGQGLEWMGWMNPNSGNTGYAQKFQGRVTMTRDTSTSTVYMELSSLRSEDTAVYYCARGQGRYLNYYYMDVWGKGTTVTVSS
VL: DIQMTQSPSSLSASVGDRVTITCRVSQGISNYLAWYQQKPGKAPKLLIYDASSLQSGVPSRFSGSGSGTDFTLTISSLQPEDFATYYCQQSYSTPFTFGPGTKVDIK
binding (human B7-H4-Fc (human) [2]): binds
binding (human B7-H4-Fc (human) [36]): binds
binding [11]: binds

Other lines, results leading:

binding [1]: binds
binding (human B7-H4-Fc (human) [2]): binds
binding [3]: binds
binding [4]: binds
binding (human B7-H4-his (human) [5]): binds
binding [6]: binds
binding [7]: binds
binding [8]: binds
binding [9]: binds
binding [10]: binds
binding [11]: binds
binding [12]: binds
binding (mouse B7-H4-his (mouse) [13]): binds
B1: 39A11/39A11 (antibody, human IgG1, V domains shown)
VH: EVQLLESGGGLVQPGGSLRLSCAASGFTFSSYGMHWVRQAPGKGLEWVASISSSSGYIYYADSVKGRFTISRDNSKNTLYLQMNSLRAEDTAVYYCARASSGMDVWGQGTTVTVSS
VL: DIQMTQSPSSLSASVGDRVTITCRASQTIRSYLNWYQQKPGKAPKLLIYAASHLQSGVPSRFSGSGSGTDFTLTISSLQPEDFATYYCQQSYTTPYTFGQGTKLEIK

binding [1]: binds
binding (mouse B7-H4-his (mouse) [14]): binds
binding (human B7-H4-Fc (human) [2]): binds
binding [15]: binds
binding (human B7-H4-his (human) [16]): binds
binding [17]: binds
binding [18]: binds
binding (human B7-H4-Fc (human) [19]): binds
binding [10]: binds
binding [20]: binds
binding [21]: binds
binding [22]: binds
B2: 39A11/57G8 (antibody, human IgG1, V domains shown)
VH: B1 VH
VL: B1 VL with T28S, A50Y, H53S, S91Y, T93S, Y96L, L104V

binding [30]: binds
binding (human B7-H4-Fc (human) [2]): binds
binding [31]: binds
binding [32]: binds
binding (human B7-H4-his (human) [5]): binds
binding [33]: binds
binding [34]: binds
binding [35]: binds
binding [11]: binds
binding [12]: binds
binding (mouse B7-H4-his (mouse) [13]): binds
B5: 24F4/24F4 (antibody, human IgG1, V domains shown)
VH: QVQLVQSGAEVKKPGSSVKVSCKASGYRFTGDYIHWVRQAPGQGLEWMGWMNPNSGNTGLAQKFQGRVTITADESTSTAYMELSSLRSEDTAVYYCARVLGFSGGMDVWGQGTTVTVSS
VL: B4 VL with G55A, Z86E, A96G, S97T, R108K

binding [30]: binds
binding (human B7-H4-Fc (human) [2]): binds
binding [31]: binds
binding [32]: binds
binding (human B7-H4-his (human) [5]): binds
binding [33]: binds
binding [34]: binds
binding [35]: binds
binding [11]: binds
binding [12]: binds
binding (mouse B7-H4-his (mouse) [13]): binds
B6: 30G4/30G4 (antibody, human IgG1, V domains shown)
VH: QVQLVQSGAEVKKPGASVKVSCKASGYTFSSYYMHWVRQAPGQGLEWMGWMNPNSGDTGYAQKFQGRVTMTRDTSTSTVYMELSSLRSEDTAVYYCARVPETGGMDVWGQGTTVTVSS
VL: B4 VL with R60H, Z86E, A96G, S97T, R108K, L109V
